Results are given in words; binding and its absence hold for the method and conditions named. Some binding calls cover weakened binding; strength is not graded here. Tags and fused reporters may be left off the sequences shown.
Legend:
[1] = target: T1, His-tagged, XPRESS epitope-containing recombinant human ANT3 (huANT3) expressed in baculovirus-infected T. ni cells (pMK4B-huANT3) (human) (UniProt P12236); test: pull-down on nickel agarose beads carrying His-tagged huANT3, western blot with anti-GST
T1 sequence: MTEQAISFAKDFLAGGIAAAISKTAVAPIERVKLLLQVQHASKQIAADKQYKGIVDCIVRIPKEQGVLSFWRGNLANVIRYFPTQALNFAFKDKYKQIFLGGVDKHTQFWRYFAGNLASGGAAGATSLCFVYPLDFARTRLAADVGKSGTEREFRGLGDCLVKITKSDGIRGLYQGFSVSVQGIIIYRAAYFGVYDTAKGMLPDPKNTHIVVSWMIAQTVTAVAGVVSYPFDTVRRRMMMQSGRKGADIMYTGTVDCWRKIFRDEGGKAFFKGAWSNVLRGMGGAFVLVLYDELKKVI

Protein sequences, listed by entry. Tags and fused reporters are not part of them. Lines headed by an entry give the natural chain unless they say otherwise; changes in a name come on top.
UniProt P30405: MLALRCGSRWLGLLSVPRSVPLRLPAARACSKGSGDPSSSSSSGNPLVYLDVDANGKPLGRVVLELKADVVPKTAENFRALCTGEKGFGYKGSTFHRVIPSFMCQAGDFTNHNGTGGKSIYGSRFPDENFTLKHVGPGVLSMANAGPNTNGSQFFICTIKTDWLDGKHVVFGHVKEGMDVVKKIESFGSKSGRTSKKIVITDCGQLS

[2] = target: T1, His-tagged, XPRESS epitope-containing recombinant human ANT3 (huANT3) expressed in baculovirus-infected T. ni cells (pMK4B-huANT3) (human); test: co-sedimentation with submitochondrial particles of T. ni cells expressing His-tagged huANT3 (1 mg SMP, 2.6 uM GST-CypD), western blot with anti-CypD antiserum
[3] = target: T1, His-tagged, XPRESS epitope-containing recombinant human ANT3 (huANT3) expressed in baculovirus-infected T. ni cells (pMK4B-huANT3) (human); test: pull-down on nickel agarose beads carrying His-tagged huANT3, EDTA elution, western blot with anti-GST
[4] = target: T1, His-tagged, XPRESS epitope-containing recombinant human ANT3 (huANT3) expressed in baculovirus-infected T. ni cells (pMK4B-huANT3) (human); test: co-sedimentation with proteoliposomes reconstituted with huANT3 and bacteriorhodopsin, western blot with anti-CypD antibodies; inhibited by cyclosporin A

- binding [1]: binds
- binding [2]: binds
- binding [3]: binds
- binding [4]: binds
Substance: GST-CypD fusion protein (glutathione S-transferase fused to human cyclophilin D, expressed from pMK12-GST-huCypD) (from UniProt P30405 30-207)
